These are yes or no findings as the source states them, for the method shown. Some binding calls cover weakened binding; strength is not graded here.
B1: ACE-2 binding polypeptide … (Sequence Family VI) (peptide)
peptide: FQLCFDWEEECEES
B2: ACE-2 binding polypeptide …-CGDK (Sequence Family VI) (peptide)
peptide: WAVCFDWENCGDK
B3: ACE-2 binding polypeptide … (Sequence Family VI) (peptide)
peptide: WQFCFDWDLNCDLR
B4: ACE-2 binding polypeptide … (Sequence Family VI) (peptide)
peptide: YWFCFDWEEDANGHCGGN
B5: ACE-2 binding polypeptide … (Sequence Family VI) (peptide)
peptide: FLLCFDWDIDWEYGCQHH
B6: ACE-2 binding polypeptide … (Sequence Family VII) (peptide)
peptide: YEECHWRPMACSTH
B7: ACE-2 binding polypeptide … (Sequence Family VII) (peptide)
peptide: WEVCHWAPMMCKHG
B8: ACE-2 binding polypeptide … (Sequence Family VII) (peptide)
peptide: YEFCHYAPQECKHM
B9: ACE-2 binding polypeptide … (Sequence Family I) (peptide)
peptide: LEMCEALFCVEF
B10: ACE-2 binding polypeptide … (Sequence Family VIII) (peptide)
peptide: QKECKFGYPHCLPW
B11: ACE-2 binding polypeptide … (Sequence Family IX) (peptide)
peptide: EHNCTWWNPCWTT
B12: ACE-2 binding polypeptide … (Sequence Family IX) (peptide)
peptide: MDHCTWYQPCVLK
B13: ACE-2 binding polypeptide … (Sequence Family IX) (peptide)
peptide: WDHCNWAHPCSRK
B14: ACE-2 binding polypeptide … (Sequence Family IX) (peptide)
peptide: SDWCGTWNNPCFHQ
B15: ACE-2 binding polypeptide … (Sequence Family X) (peptide)
peptide: RYLCLPQRDKPWKFCNWF
B16: ACE-2 binding polypeptide … (Sequence Family X) (peptide)
peptide: RLHCKPQRQSPWMKCQHL
B17: ACE-2 binding polypeptide … (Sequence Family X) (peptide)
peptide: YSHCSPLRYYPWWKCTYP
B18: ACE-2 binding polypeptide … (Sequence Family X) (peptide)
peptide: LHACRPVRGDPWWACTLG

target: FLAG-tagged ACE-2 (human) (UniProt Q9BYF1); test: phage ELISA, FLAG-ACE-2 on anti-FLAG antibody plate

Binder	binding
B1	binds
B2	binds
B3	binds
B4	binds
B5	binds
B6	binds
B7	binds
B8	binds
B9	binds
B10	binds
B11	binds
B12	binds
B13	binds
B14	binds
B15	binds
B16	binds
B17	binds
B18	binds

— US20030091557A1, “Methods and compositions for modulating ACE-2 activity” (priority 2001, published 2003)
